Results deposited as PubChem BioAssay AID1259254 (NCATS, 2017).

Test: 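Genome-wide screen for genes that prevent DNA re-replication in cancer cells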 (primary screen)
System: human HCT116 colorectal cancer cells
Knock-down reagent: single siRNA against human genes
Time to read-out: 3 days
Measured: 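Imaged Hoechst DNA stain sorts each cell into a cycle phase by DNA amount; per plate, G2 fraction set to 0% for non-targeting and 100% for GMNN siRNA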
Reading the numbers: G2 robust z-score: higher = more G2 cells, more excess DNA replication
Rule for the call: 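An siRNA counts as active if its G2 robust z-score lies at least 5 MADs above the screen median; here such calls match roughly 38% of GMNN control or more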
In all, the deposit lists about 59,000 reagents; this is a random part of them. About 1,550 of all reagents (2.6%) count as active. 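G2 share is only a proxy for re-replication; each gene was hit by three separate siRNAs, and active genes were retested.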 Entries without a mark were called inactive. Reagents against one gene are numbered here. Further read-outs or replicates are left out here. Not given: the amount of reagent.

gene symbol	siRNA no.	G2 robust z-score
MFGE8	1	-0.531
MFGE8	2	-1.13
MFGE8	3	-0.646
SLC10A3	1	0.479
SLC10A3	2	-0.255
SLC10A3	3	6.82 (active)
CFAP70	1	0.286
CFAP70	2	0.96
CFAP70	3	-0.205
ICAM4	1	-0.616
ICAM4	2	-0.639
ICAM4	3	-0.371
PMPCB	1	-0.272
PMPCB	2	-0.614
PMPCB	3	0.509
NIT2	1	0.806
NIT2	2	-0.231
NIT2	3	-0.768
SLC35A4	1	0.124
SLC35A4	2	0.286
SLC35A4	3	-0.376
MRPL19	1	-0.309
MRPL19	2	0.00706
MRPL19	3	-0.485
ABCA2	1	-0.451
ABCA2	2	2.6
ABCA2	3	0.794
CXCR6	1	-0.23
CXCR6	2	-0.334
CXCR6	3	1.49

Hits (from the list above):
gene symbol	siRNA no.	G2 robust z-score
SLC10A3	3	6.82 (active)

Further reagents follow.
gene symbol	siRNA no.	G2 robust z-score
TMEM60	1	0.663
TMEM60	2	1.07
TMEM60	3	1.02
UBIAD1	1	0.439
UBIAD1	2	-0.154
UBIAD1	3	1.36
AXIN2	1	-0.273
AXIN2	2	-0.171
AXIN2	3	-0.851
MNMIP1	1	0.00719
MNMIP1	2	6.77 (active)
MNMIP1	3	-1.2
NUF2	1	5.39 (active)
NUF2	2	2.57
NUF2	3	2.84
KRTAP3-2	1	-0.213
KRTAP3-2	2	-0.456
KRTAP3-2	3	0.133
PMVK	1	-0.512
PMVK	2	-0.353
PMVK	3	2.15
GRXCR2	1	-0.173
GRXCR2	2	-0.368
GRXCR2	3	-0.884
GTSCR1	1	-0.297
GTSCR1	2	0.877
GTSCR1	3	0.201
ADAM19	1	2.16
ADAM19	2	-0.743
ADAM19	3	0.664
NKD2	1	-0.624
NKD2	2	-0.216
NKD2	3	1.02
FLJ37786 (retired record)	1	0.00959
FLJ37786 (retired record)	2	1.86
FLJ37786 (retired record)	3	-0.342
MTMR4	1	3.99
MTMR4	2	-0.969
MTMR4	3	4.19
